Laboratory results taken from the supplement of paper PMC3334620.
The full ranking holds about 33,000 sequences; the median of “E-score (-0.5 to 0.5)” is about -0.0059, and the highest 2% start at about 0.26. The list shows a part of the results.

Each sequence was assayed against T1, Cin5 (UniProt P40917) (assay: PBM E-score (8-mer binding enrichment) (E-score (-0.5 to 0.5)); higher = stronger / more preferred TF binding). Details: protein concentration: 100 nM; construct: GST-full length.
T1 sequence: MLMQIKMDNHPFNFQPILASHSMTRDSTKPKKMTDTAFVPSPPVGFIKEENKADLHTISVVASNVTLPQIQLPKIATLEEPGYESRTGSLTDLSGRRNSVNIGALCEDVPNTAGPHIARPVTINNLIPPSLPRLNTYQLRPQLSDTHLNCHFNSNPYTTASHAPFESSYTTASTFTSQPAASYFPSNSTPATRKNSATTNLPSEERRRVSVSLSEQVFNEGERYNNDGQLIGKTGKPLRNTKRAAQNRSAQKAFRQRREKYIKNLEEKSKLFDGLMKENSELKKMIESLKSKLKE
In short: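 Each ungapped eight-base word and its reverse complement, pooled, received an E-score from the Universal PBM Analysis Suite. Underlying scans, normalised with masliner, recorded fluorescent anti-GST bound to GST-tagged yeast transcription factors. These were applied at about 100-200 nM to universal all-10-mer Agilent arrays double-stranded by primer extension.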
With ACAACTCG the “PBM E-score” value was 0.113.
For ATCGAACC, the “PBM E-score” value was 0.0747.
With ACAGTACC the “PBM E-score” value was -0.0968.
In the case of CAGGCATC, the “PBM E-score” value is reported as -0.115.
For CCAAAAGC, the “PBM E-score” value was -0.0692.
AGCATACC was tested, and the “PBM E-score” value was 0.0457.
AGGATTAT was tested, and the “PBM E-score” value was -0.0477.
GCCTTATA was tested, and the “PBM E-score” value was -0.0112.
AATGATCT was tested, and the “PBM E-score” value was 0.118.
In the case of CGGATGGA, the “PBM E-score” value is reported as 0.0569.
With CCTTATAA the “PBM E-score” value was 0.122.
With CGTCAAAG the “PBM E-score” value was -0.0995.
For TCAGCGGA, the “PBM E-score” value was 0.104.
For CATTCATC, the “PBM E-score” value was 0.119.
In the case of CGAAAACG, the “PBM E-score” value is reported as -0.0579.
In the case of GTGTGGGA, the “PBM E-score” value is reported as 0.0452.
AATATGTG was tested, and the “PBM E-score” value was 0.197.
In the case of CACAGTCA, the “PBM E-score” value is reported as -0.0863.
In the case of ACGTACCC, the “PBM E-score” value is reported as -0.00949.
For CGTTTCAG, the “PBM E-score” value was 0.0885.
In the case of AGCATGAG, the “PBM E-score” value is reported as 0.0254.
For CATTTACC, the “PBM E-score” value was 0.0667.
For CGAGTATC, the “PBM E-score” value was -0.108.
For GCGCCAGC, the “PBM E-score” value was -0.297.
With ACAGGGGG the “PBM E-score” value was -0.407.
For AAATGGAT, the “PBM E-score” value was 0.111.
CAACCAGC was tested, and the “PBM E-score” value was -0.0666.
With ATCCCGGA the “PBM E-score” value was 0.154.
With GGCTGATA the “PBM E-score” value was 0.0385.
For AGGAGCGC, the “PBM E-score” value was -0.165.
With ACGAGCGG the “PBM E-score” value was -0.0674.
GTACGGAC was tested, and the “PBM E-score” value was 0.0359.
In the case of GAATTACC, the “PBM E-score” value is reported as 0.00886.
GGCTGCCC was tested, and the “PBM E-score” value was -0.243.
In the case of ATTTCTCG, the “PBM E-score” value is reported as 0.313.
With ATCGTGGC the “PBM E-score” value was -0.0613.
With TGCAAAAA the “PBM E-score” value was 0.0983.
With GGGGATTA the “PBM E-score” value was 0.253.
For CCGGTTGA, the “PBM E-score” value was -0.0617.
AATAGCAT was tested, and the “PBM E-score” value was 0.174.
With AGCTCTGA the “PBM E-score” value was -0.219.
With AGACGACC the “PBM E-score” value was -0.0757.
With AAAGAAAG the “PBM E-score” value was 0.0167.
AATTCTCA was tested, and the “PBM E-score” value was 0.0439.
In the case of AGCGACCT, the “PBM E-score” value is reported as -0.194.
For GCTAGTCC, the “PBM E-score” value was -0.226.
CGATGCGA was tested, and the “PBM E-score” value was 0.0284.
GAAACAAA was tested, and the “PBM E-score” value was 0.21.
CTAGCTAG was tested, and the “PBM E-score” value was 0.041.
AGGTGGAG was tested, and the “PBM E-score” value was -0.239.
AACCAGGT was tested, and the “PBM E-score” value was -0.181.
For ACTTTCGC, the “PBM E-score” value was -0.0059.
With AGGGCCGC the “PBM E-score” value was -0.324.
In the case of AACCGCGC, the “PBM E-score” value is reported as 0.241.
In the case of GAAGTTCA, the “PBM E-score” value is reported as 0.0618.
In the case of CGAGATAC, the “PBM E-score” value is reported as 0.15.
GTGGTCAA was tested, and the “PBM E-score” value was 0.0229.
GAAATACA was tested, and the “PBM E-score” value was 0.108.
With AAGAAGAG the “PBM E-score” value was 0.0193.
With AGTCCACC the “PBM E-score” value was 0.0743.
With AGTGGGCA the “PBM E-score” value was 0.0507.
For CTCTGGGA, the “PBM E-score” value was -0.31.
CGTGTCTA was tested, and the “PBM E-score” value was 0.0403.
In the case of GCGTGGAC, the “PBM E-score” value is reported as -0.251.
In the case of ACCATGGA, the “PBM E-score” value is reported as -0.247.
With TGTACTAA the “PBM E-score” value was 0.0762.
In the case of GCGACGCA, the “PBM E-score” value is reported as -0.137.
In the case of ACGCGAAC, the “PBM E-score” value is reported as 0.0266.
In the case of CGGGCTAC, the “PBM E-score” value is reported as -0.192.
For AGCTTTTA, the “PBM E-score” value was 0.0832.
In the case of CTAACTGA, the “PBM E-score” value is reported as 0.0445.
With GATCAATA the “PBM E-score” value was 0.131.
In the case of CGTCCACG, the “PBM E-score” value is reported as -0.229.
For ATAATTCG, the “PBM E-score” value was 0.171.
For CAAGTAGC, the “PBM E-score” value was -0.0646.
CTCAGCTA was tested, and the “PBM E-score” value was -0.124.
AGAAACTA was tested, and the “PBM E-score” value was -0.065.
In the case of TATGAGAA, the “PBM E-score” value is reported as 0.214.
With AGGAACAT the “PBM E-score” value was -0.0926.
CGGTGCAA was tested, and the “PBM E-score” value was -0.107.
For TGCCGCAA, the “PBM E-score” value was 0.00929.
In the case of ACCAAGTC, the “PBM E-score” value is reported as 0.0933.
CTCACCAG was tested, and the “PBM E-score” value was 0.0111.
CCCCGACA was tested, and the “PBM E-score” value was -0.0722.
In the case of AATTCCGT, the “PBM E-score” value is reported as 0.228.
With ACGTACCT the “PBM E-score” value was -0.23.
For CCTCACGC, the “PBM E-score” value was 0.0561.
CAATTCAC was tested, and the “PBM E-score” value was 0.158.
In the case of TGAGCACA, the “PBM E-score” value is reported as 0.0892.
With ACGCATGA the “PBM E-score” value was 0.0604.
CGGGCCGC was tested, and the “PBM E-score” value was -0.0901.
In the case of AGCAGGCG, the “PBM E-score” value is reported as -0.0847.
In the case of GACGTTGA, the “PBM E-score” value is reported as 0.168.
For GCACAGGC, the “PBM E-score” value was -0.0964.
CAGACGGC was tested, and the “PBM E-score” value was -0.114.
In the case of TACAAAAA, the “PBM E-score” value is reported as 0.232.
With AACATTAG the “PBM E-score” value was -0.0325.
In the case of CGTCACAC, the “PBM E-score” value is reported as -0.0397.
With CAGCAGGG the “PBM E-score” value was -0.147.
CCCTCCAC was tested, and the “PBM E-score” value was -0.0933.
For GATATCCA, the “PBM E-score” value was 0.183.
For ATCAAAAA, the “PBM E-score” value was 0.239.
CGTGACTC was tested, and the “PBM E-score” value was -0.283.
With ATAAGACG the “PBM E-score” value was 0.0211.
TATCCTGA was tested, and the “PBM E-score” value was 0.1.
For ACCGCGCG, the “PBM E-score” value was 0.241.
In the case of ACATCTCA, the “PBM E-score” value is reported as 0.128.
With ATTACCAG the “PBM E-score” value was 0.18.
ACGGGTCC was tested, and the “PBM E-score” value was -0.245.
In the case of TTCTAGAA, the “PBM E-score” value is reported as -0.0837.
With ACAACTGG the “PBM E-score” value was -0.0556.
For GGCAATTA, the “PBM E-score” value was 0.0819.
For GAGTGACC, the “PBM E-score” value was -0.0639.
In the case of AAGGGCAG, the “PBM E-score” value is reported as -0.162.
With ACAGTAAA the “PBM E-score” value was 0.098.
With GGATTGGA the “PBM E-score” value was 0.0959.
With CGACTTAC the “PBM E-score” value was -0.0271.
In the case of GCGTAACC, the “PBM E-score” value is reported as 0.0286.
With ATGGTTAC the “PBM E-score” value was 0.0735.
For CGCCACCA, the “PBM E-score” value was -0.28.
In the case of CATATAGC, the “PBM E-score” value is reported as 0.164.
With TATAACGA the “PBM E-score” value was 0.172.
In the case of ATCGGCTA, the “PBM E-score” value is reported as 0.0195.
For CCCACCTA, the “PBM E-score” value was -0.0442.
For ACGAGTGC, the “PBM E-score” value was -0.119.
In the case of ACTAAACC, the “PBM E-score” value is reported as -0.0367.
For CCGTTGAA, the “PBM E-score” value was -0.199.
CAGAATCC was tested, and the “PBM E-score” value was -0.0177.
TCTGGTAA was tested, and the “PBM E-score” value was 0.126.
With GTACCGAC the “PBM E-score” value was -0.159.
With AGAACTCT the “PBM E-score” value was -0.0917.
With CGATAGTC the “PBM E-score” value was -0.0397.
In the case of CGTGGCAA, the “PBM E-score” value is reported as -0.207.
For TCATTTAA, the “PBM E-score” value was 0.167.
For CCACACCA, the “PBM E-score” value was 0.165.
In the case of AGGCACCG, the “PBM E-score” value is reported as -0.204.
In the case of GAGAGGCA, the “PBM E-score” value is reported as -0.157.
AAGTAAAC was tested, and the “PBM E-score” value was 0.113.
In the case of GTCGCCAC, the “PBM E-score” value is reported as -0.242.
ATGGATAC was tested, and the “PBM E-score” value was 0.0771.
For AAACAAAG, the “PBM E-score” value was 0.135.
AATCGCAA was tested, and the “PBM E-score” value was 0.119.
In the case of CACATCTG, the “PBM E-score” value is reported as -0.0646.
With CCTTCGTA the “PBM E-score” value was -0.0406.
CTTTCGGC was tested, and the “PBM E-score” value was -0.195.
In the case of TAAGCTAA, the “PBM E-score” value is reported as 0.222.
AGTACGGG was tested, and the “PBM E-score” value was -0.115.
For ATACCGGC, the “PBM E-score” value was 0.0471.
CTGTTTAA was tested, and the “PBM E-score” value was 0.0642.
TTGATAAA was tested, and the “PBM E-score” value was 0.187.
With ATAACGGG the “PBM E-score” value was 0.0198.
With GACAAGTC the “PBM E-score” value was -0.226.
In the case of ATGAATCA, the “PBM E-score” value is reported as 0.16.
CCGTATCA was tested, and the “PBM E-score” value was 0.036.
In the case of GCTAATAC, the “PBM E-score” value is reported as 0.153.
For CTCTTCCA, the “PBM E-score” value was -0.124.
For ACATTATA, the “PBM E-score” value was 0.244.
For ATTACAAG, the “PBM E-score” value was 0.131.
With CACGGGGA the “PBM E-score” value was -0.064.
In the case of GTGGCCTA, the “PBM E-score” value is reported as -0.0108.
With CCCTTTCA the “PBM E-score” value was -0.259.
In the case of CTAATCAA, the “PBM E-score” value is reported as 0.301.
In the case of CGTCTAAC, the “PBM E-score” value is reported as -0.136.
In the case of AGGACGCC, the “PBM E-score” value is reported as -0.22.
For ATTAAGGC, the “PBM E-score” value was 0.0047.
In the case of CACTTTAC, the “PBM E-score” value is reported as 0.112.
CAGCGAAA was tested, and the “PBM E-score” value was -0.0554.
With GGTTACGA the “PBM E-score” value was 0.0792.
With ATGGGGTG the “PBM E-score” value was 0.0486.
In the case of AGGTCGAA, the “PBM E-score” value is reported as 0.0466.
With GGGTGGCA the “PBM E-score” value was -0.133.
With GGTCCCAC the “PBM E-score” value was -0.148.
